# Percent effect of library compounds

Sequences of proteins named here, by UniProt entry; tags and fusion partners are left off. Residues count along the entry.
UniProt A4I591, 1-473: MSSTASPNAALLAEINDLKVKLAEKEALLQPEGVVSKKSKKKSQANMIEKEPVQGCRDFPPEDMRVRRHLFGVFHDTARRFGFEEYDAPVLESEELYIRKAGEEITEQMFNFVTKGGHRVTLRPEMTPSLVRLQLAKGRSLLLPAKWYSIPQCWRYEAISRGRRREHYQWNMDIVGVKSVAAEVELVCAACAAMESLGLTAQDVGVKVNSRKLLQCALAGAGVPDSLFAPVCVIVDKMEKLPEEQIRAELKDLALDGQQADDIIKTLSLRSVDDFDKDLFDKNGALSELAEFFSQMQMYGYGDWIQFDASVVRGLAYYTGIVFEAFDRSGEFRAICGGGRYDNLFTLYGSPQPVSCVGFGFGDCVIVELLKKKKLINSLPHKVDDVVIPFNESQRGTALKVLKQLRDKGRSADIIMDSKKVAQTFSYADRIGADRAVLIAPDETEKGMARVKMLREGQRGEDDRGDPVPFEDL
UniProt P9WFT3, whole entry: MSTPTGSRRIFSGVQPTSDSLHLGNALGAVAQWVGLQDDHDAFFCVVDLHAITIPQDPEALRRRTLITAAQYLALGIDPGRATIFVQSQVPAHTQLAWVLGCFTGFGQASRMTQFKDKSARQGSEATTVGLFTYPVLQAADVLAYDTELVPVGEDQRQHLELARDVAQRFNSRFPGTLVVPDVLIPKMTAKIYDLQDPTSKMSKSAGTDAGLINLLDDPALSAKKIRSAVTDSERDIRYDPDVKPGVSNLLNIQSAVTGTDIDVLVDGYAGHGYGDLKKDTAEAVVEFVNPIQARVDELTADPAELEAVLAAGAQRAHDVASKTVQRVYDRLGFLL

Measurements from “University of Dundee, Small-Polar-MMV Screening Library” (2021), ChEMBL document CHEMBL3988442.

LiHisRS: 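Enzyme assay of histidyl-tRNA synthetase; the read-out is not stated. Target: Histidine-tRNA ligase, Leishmania infantum (UniProt A4I591). Tested at 30 µM. The record gives no direction; compounds that gave an IC50 in retests scored well above the rest, so higher reads as stronger inhibition. The assay is labelled LdHisRS but filed under L. infantum. Size under these conditions: about 69,000 compounds, about 410 of them at 50% or above in at least one test.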
MtTrpRS: 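Enzyme assay of tryptophanyl-tRNA synthetase; the read-out is not stated. Target: Tryptophan-tRNA ligase, Mycobacterium tuberculosis (UniProt P9WFT3). Concentration: 10 µM. Direction is not recorded; retested compounds ran higher, which suggests that high means inhibition. Of about 65,000 compounds tested this way, about 64 (0.098%) reached 50% or more in at least one test.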

Each number is a percent effect as filed.
The record does not define 0% and 100%; most values in the screen are far below 50% and negative numbers occur (in some assays of this library far below -100).
The compounds are a random part of those screened.

{"structure": "O=C(NCC1CCCOC1)c1ccc(-c2ccccc2)[nH]c1=O", "stereo": "stereo not drawn", "LiHisRS": 8.929, "MtTrpRS": -6.908}
{"structure": "CC(C(=O)N1CCOCC1)n1nc(-c2cccs2)cc(N)c1=O", "stereo": "stereo not drawn", "LiHisRS": 2.857, "MtTrpRS": -0.3524}
{"structure": "Cc1cnc(N2CC[C@@H]3O[C@H](COCc4ccccn4)CC[C@@H]32)nc1", "LiHisRS": 27, "MtTrpRS": -3.412}
{"structure": "CCOc1ccc(C(=O)Nc2c(C)nc3cccc(C)n3c2=O)cc1", "LiHisRS": 7.895, "MtTrpRS": 3.613}
{"structure": "C[C@@H]1CN(Cc2nnc(-c3cccnc3)o2)CC[C@]1(C)O", "LiHisRS": 12.82, "MtTrpRS": 10.46}
{"structure": "COc1ccccc1CNC(=O)C(C)N1CC(n2cc(C)cn2)C1", "stereo": "stereo not drawn", "LiHisRS": 13.95, "MtTrpRS": -2.874}
{"structure": "O=C(NCC(O)c1ccc(F)cc1F)c1cccc(F)c1", "stereo": "stereo not drawn", "LiHisRS": 16.67, "MtTrpRS": -4.617}
{"structure": "O=C(CCC(=O)Nc1nnc(C2CCCCC2)s1)NCC1CCCO1", "stereo": "stereo not drawn", "LiHisRS": 2.5, "MtTrpRS": -2.305}
{"structure": "Cc1ccc(CNC(=O)CCN2CCOC(C(F)(F)F)C2)cc1", "stereo": "stereo not drawn", "LiHisRS": 13.68, "MtTrpRS": -4.497}
{"structure": "O=C(c1cccc(O)n1)N1CCC(O)(CN2CCC(F)(F)CC2)C1", "stereo": "stereo not drawn", "LiHisRS": 5.634, "MtTrpRS": -1.291}
{"structure": "Cc1ccc(N2CCC(C(O)c3cccs3)CC2)nn1", "stereo": "stereo not drawn", "LiHisRS": 24.18, "MtTrpRS": 1.854}
{"structure": "O=C(c1cc(F)cc(F)c1)N1CCC2(CC1)CC2", "LiHisRS": 24, "MtTrpRS": 1.647}
{"structure": "COC(=O)c1cccc(NC(=O)CN2CCN(S(C)(=O)=O)CC2)c1", "LiHisRS": 16.98, "MtTrpRS": -0.8382}
{"structure": "Cc1cnc(C(=O)N2CCCN(c3nc(C)cs3)CC2)cn1", "LiHisRS": 13.79, "MtTrpRS": -0.6555}
{"structure": "CC(C)=CCC/C(C)=C\\CNCc1ccco1", "LiHisRS": 10.17, "MtTrpRS": -2.129}
{"structure": "Cc1nc(C(C)C)sc1C(=O)NCCn1nc2ccccn2c1=O", "LiHisRS": 23.85, "MtTrpRS": 1.451}
{"structure": "COC(=O)c1ccccc1C(=O)N(CCN(C)C)Cc1sccc1C", "LiHisRS": 19.74, "MtTrpRS": -5.862}
{"structure": "O=C(c1cnccn1)N1CCCC(C2=Nc3ccccc3S(=O)(=O)N2)C1", "stereo": "stereo not drawn", "LiHisRS": 13.99, "MtTrpRS": -1.762}
{"structure": "COc1ncccc1C(=O)N1CCCC1c1c(C)nn(C)c1Cl", "stereo": "stereo not drawn", "LiHisRS": 5.128, "MtTrpRS": -2.328}
{"structure": "N#CC1CCCN(C(=O)Cn2ncc(N3CCCC3)cc2=O)C1", "stereo": "stereo not drawn", "LiHisRS": 8.861, "MtTrpRS": 4.48}
{"structure": "CC(C)(C)c1n[nH]c(C2CN(C(=O)c3cc(C4CC4)on3)CCO2)n1", "stereo": "stereo not drawn", "LiHisRS": 11.43, "MtTrpRS": 9.004}
{"structure": "CC(C)(C)c1cc(CN2CCOC(CCc3ccccc3)C2)n[nH]1", "stereo": "stereo not drawn", "LiHisRS": 20.59, "MtTrpRS": -1.09}
{"structure": "CCc1cnc(CN2CCCC(c3cc(C)[nH]n3)C2)o1", "stereo": "stereo not drawn", "LiHisRS": 11.29, "MtTrpRS": 2.271}
{"structure": "Fc1cccc(Cl)c1CNCCCOc1ccccn1", "LiHisRS": 7.865, "MtTrpRS": -1.052}
{"structure": "O=C([C@H]1COC[C@H]2CN(C3CCCC3)C[C@H]21)N1CCOCC1", "LiHisRS": 10, "MtTrpRS": -4.334}
{"structure": "CC(CNC(=O)c1c[nH]nn1)Oc1ccc(Cl)cc1", "stereo": "stereo not drawn", "LiHisRS": 3.614, "MtTrpRS": 1.224}
{"structure": "Cn1cc(N2CCCC(Nc3ccc4c(c3)NC(=O)CC4)C2=O)cn1", "stereo": "stereo not drawn", "LiHisRS": 21.92, "MtTrpRS": -1.19}
{"structure": "CN(C)C(=O)COC1COC2(CCN(S(C)(=O)=O)CC2)C1", "stereo": "stereo not drawn", "LiHisRS": 15.04, "MtTrpRS": 0.6103}
{"structure": "CCN1CCC(CNc2nccc(C)n2)(N(C)C)CC1", "LiHisRS": 15.71, "MtTrpRS": 2.527}
{"structure": "CCC(Oc1ccc(N(C)S(C)(=O)=O)cc1)C(=O)N(C)C", "stereo": "stereo not drawn", "LiHisRS": 4.478, "MtTrpRS": -0.455}
{"structure": "Cc1cc(C(=O)NC2CCCCNC2=O)c(=O)[nH]c1C", "stereo": "stereo not drawn", "LiHisRS": 6.593, "MtTrpRS": 2.914}
{"structure": "N#Cc1ccnc(N2CCN(Cc3cccc(F)c3)CC2)c1", "LiHisRS": 22.64, "MtTrpRS": 0.8382}

For reference, 3 entries once more:

| structure | LiHisRS | MtTrpRS |
|---|---|---|
| `CC(C(=O)N1CCOCC1)n1nc(-c2cccs2)cc(N)c1=O` (stereo not drawn) | 2.857% | -0.3524% |
| `Cc1ccc(N2CCC(C(O)c3cccs3)CC2)nn1` (stereo not drawn) | 24.18% | 1.854% |
| `Cc1ccc(CNC(=O)CCN2CCOC(C(F)(F)F)C2)cc1` (stereo not drawn) | 13.68% | -4.497% |